Results are given as percent effect. How 0% and 100% were set is not recorded. Most values in the screen are low, and negative values occur. This is an unselected part of the compounds tested. A dash means the value is not listed here; it may have been measured.

A: 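Whole-cell assay for inhibitors of Mycobacterium tuberculosis growth, labelled Cornell in the record; the read-out is not stated. The concentration is filed as 10 mM, unlikely as a test dose, so the dose is not known. Higher means stronger inhibition (inferred from two other growth screens of the library). Size under these conditions: about 53,000 compounds, about 900 of them at 50% or above in at least one test.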
B: 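Assay on Mycobacterium tuberculosis, filed only as a heat shock assay from Cornell; the read-out is not stated. The concentration is filed as 10 mM, unlikely as a test dose, so the dose is not known. Direction is inferred from retests: higher values go with stronger inhibition. About 69,000 compounds were tested under these conditions; 1.4% (about 930) showed 50% or more at least once.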

| # | SMILES | A | B |
|---|---|---|---|
| 1 | `CCOCCCC(=O)Nc1cc(C(N)=O)ccc1N1CCCCC1` | 12.01 | 27.37 |
| 2 | `O=C(O)C(F)(F)F.[H][C@@]12CN(C(=O)c3ccn(C)n3)C[C@]1([H])OCCN2c1ncccn1` | -24.44 | -20 |
| 3 | `Cn1cccc1-c1cc(C(=O)N2CCCC2c2ccc(C(N)=O)s2)[nH]n1` (stereo not shown) | - | 26.24 |
| 4 | `FC(F)Sc1ccc(NCc2nnc(C3CC3)o2)cc1` | 12.32 | 24.01 |
| 5 | `CCO[C@H]1CN(C)C[C@@H]1NC(=O)c1cc(C)nc2c(C)c(C)ccc12` | 21 | 17.16 |
| 6 | `Cc1nc(C)c(C(=O)NCCNc2cc(N3CCCC3)ncn2)s1` | - | -5.693 |
| 7 | `COc1c(C2CCCN2C(=O)c2nccnc2N)c(C)nn1C` (stereo not shown) | 19.46 | 1.263 |
| 8 | `Cc1cc(C)c(CNc2nc3ccccc3cc2CO)c(=O)[nH]1` | - | 11.88 |
| 9 | `Cc1csc(C(Cc2ccsc2)NC(=O)C2CCN(S(C)(=O)=O)CC2)n1` (stereo not shown) | -2.037 | -1.617 |
| 10 | `CC(C)COCCCNC(=O)c1cccnc1N1CCOCC1` | 3.314 | -16.2 |
| 11 | `CC(C)c1nnsc1CN1CCc2[nH]nc(-c3ccc(Cl)cc3)c2C1` | 8.179 | 7.401 |
| 12 | `[H][C@@]12OCCN(Cc3ccoc3)[C@@]1([H])CC[C@H]2OCc1cccc(C)n1` | -4.563 | 15.43 |
| 13 | `CCc1nc(N)nc(N2CCCC3(CCN(C)CC3)CC2)c1C` | -5.166 | -7.446 |
| 14 | `Cc1ncoc1C(=O)N1CCCC(C(=O)c2cccc(OC(C)C)c2)C1` (stereo not shown) | 24.39 | -24.52 |
| 15 | `Cc1ccn2cc(C(=O)N3CCCC(Cn4cc(CO)nn4)C3)nc2c1` (stereo not shown) | -14.59 | -13.66 |
| 16 | `O=C(NCC(O)COc1cccc(F)c1)c1ccoc1` (stereo not shown) | 7.001 | 28.81 |
| 17 | `CCc1cc(C)c(C(=O)N2CCCC(c3nnn[nH]3)C2)o1` (stereo not shown) | -9.54 | 8.671 |
| 18 | `COc1ccc(CC(=O)NC(CC(=O)O)c2ccc(F)cc2)cc1OC` (stereo not shown) | - | 13.56 |
| 19 | `CS(=O)(=O)c1cnc(CC2CC2)nc1C1CCCNC1` (stereo not shown) | -17.12 | -20.51 |
| 20 | `CCC(=O)Nc1nnc(CCOc2ccc(OC)cc2)s1` | - | -4.84 |
| 21 | `Cc1nn(-c2ccccc2)c(C)c1-c1ccnc(N2CCCNCC2)n1` | - | 2.088 |
| 22 | `Cc1cccc(CN2CCc3ncnc(NC4CCC4)c3CC2)n1.O=C(O)C(F)(F)F.O=C(O)C(F)(F)F` | 32.6 | -27.81 |
| 23 | `OCCN1CCN(CC2(O)CCCCC2)CC1` | -1.976 | -15.25 |
| 24 | `CCOCCCC(=O)NCc1ccc(N2CCCCC2)cc1` | 27.67 | -34.34 |
| 25 | `O=C(NCc1cccs1)c1[nH]nc2c1CS(=O)(=O)CC2` | - | -31.3 |
| 26 | `CN1CCOC(c2cncc(CCC(=O)N(C)C)n2)C1` (stereo not shown) | -44.27 | 22.3 |
| 27 | `COc1c(C)cnc(CN2CCn3c(nnc3C(C)C)C2)c1C` | - | 10.1 |
| 28 | `CCc1cccc2c(CC(=O)N(C)CCN(C)C)c(C)[nH]c12.O=C(O)CC(O)(CC(=O)O)C(=O)O` | 51.84 | 1.394 |
| 29 | `CSCCC(Nc1nc(C)cc(C)n1)C(=O)NC1CC1` (stereo not shown) | 37.22 | 0.3775 |
| 30 | `CC(=O)c1cc(Br)cc(F)c1OCC(=O)NC(C)C` | 9.533 | -3.386 |
| 31 | `O=C(C1CN(CC2CCOCC2)CC12CCOCC2)N1CCCC1.O=C(O)C(F)(F)F` (stereo not shown) | 7.077 | -12.34 |
| 32 | `Cc1nc(Nc2nccs2)cc(C2CCCN2C2CCOCC2)n1` (stereo not shown) | 3.04 | -17.35 |
| 33 | `CCn1nc2c(cc1=O)CN(CCCOc1ccc(C#N)cc1)CC2` | -18.52 | 6.477 |
| 34 | `COc1c(CNCc2ccc(N(C)C)nc2)c(C)nn1C` | - | -46.66 |
| 35 | `N#Cc1cc(NC(=O)c2ccncc2)ccc1N1CCC(O)CC1` | 0.5361 | 7.104 |
| 36 | `CCOC(=O)C1CN(C(=O)C2CCOCC2)Cc2ncn(CC)c21` (stereo not shown) | -8.277 | -32.13 |
| 37 | `O=C(CCc1cscn1)N1CCCC(n2cncn2)C1` (stereo not shown) | -6.183 | -41.27 |
| 38 | `CN(C)c1ccccc1C(=O)N1C[C@@H](CN2CCC(O)CC2)[C@@H](CO)C1` | 16.53 | 10.14 |
| 39 | `CCc1cc(N[C@H]2CC[C@H](O)CC2)n2nc(C)c(C)c2n1` | 0.6254 | 0.899 |
| 40 | `CC(C)c1nc(CN(C)C(=O)[C@H](N)Cc2ccc(Cl)cc2)cs1` | 31.05 | -4.065 |
| 41 | `CCCOc1ccc(CNC(=O)N2CCC(C(N)=O)C2)cc1` (stereo not shown) | -24.18 | 21.99 |
| 42 | `CCCc1cncnc1N1CCC(NCc2cc3ccccc3[nH]2)CC1` | 109.8 | 103.5 |

5 of the entries, repeated:

* O=C(C1CN(CC2CCOCC2)CC12CCOCC2)N1CCCC1.O=C(O)C(F)(F)F (stereo not shown) : A: 7.077%; B: -12.34%
* O=C(O)C(F)(F)F.[H][C@@]12CN(C(=O)c3ccn(C)n3)C[C@]1([H])OCCN2c1ncccn1 : A: -24.44%; B: -20%
* Cc1cccc(CN2CCc3ncnc(NC4CCC4)c3CC2)n1.O=C(O)C(F)(F)F.O=C(O)C(F)(F)F : A: 32.6%; B: -27.81%
* CN1CCOC(c2cncc(CCC(=O)N(C)C)n2)C1 (stereo not shown) : A: -44.27%; B: 22.3%
* FC(F)Sc1ccc(NCc2nnc(C3CC3)o2)cc1 : A: 12.32%; B: 24.01%

Source: ChEMBL document CHEMBL3988442, “University of Dundee, Small-Polar-MMV Screening Library” (2021).